PubChem BioAssay AID602196 | INSERM – 2012

Assay: 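Modifiers of cisplatin sensitivity in A549 cells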
System: human A549 lung cancer cells
Reagents: siRNA pair against human genes
Duration: 48 h transfection before cisplatin; time from cisplatin to read-out not stated
Conditions: cisplatin at a dose killing half of control-siRNA cells; exact dose and duration not given
Detection: 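Shift in cisplatin death relative to control siRNA, from -50 (all cells die) to +50 (no cells die); siRNAs harmful on their own scored 0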
Scale: two-siRNA summed score (-2 to +2): higher = both siRNAs protect from cisplatin killing; -2 means both sensitise; mean protection from cisplatin (shift in death): higher = protection from cisplatin killing
Rule for the call: 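siRNAs harmful alone (LDH or WST-1) get 0; others get +1 for less and -1 for more cisplatin killing; genes are active when the two siRNAs give the same sign, summing to ±2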
Calls: active = both siRNAs shift cisplatin killing the same way; inactive = no consistent shift, or siRNA harmful alone
The deposit covers about 23,000 reagents; this is a part drawn at random. 455 of all reagents (2%) were called active. 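Active includes both protection and sensitisation; some change values fall well beyond the stated -50 to +50 range.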 A number with no mark means an inactive call. Reagents against one gene are numbered here. Not all columns of the deposit are shown. The record does not give: the amount of reagent.

After knock-down of LOC440246, the screen gave two-siRNA summed score (-2 to +2) = 1; mean protection from cisplatin (shift in death) (%) = 10.4.
Depletion of DTWD1 (DTW motif tRNA-uridine aminocarboxypropyltransferase 1) came out at: two-siRNA summed score (-2 to +2) = 0; mean protection from cisplatin (shift in death) (%) = 10.
Silencing of OR13C9 (olfactory receptor family 13 subfamily C member 9) came out at: two-siRNA summed score (-2 to +2) = 0; mean protection from cisplatin (shift in death) (%) = 6.5.
LOC401048 showed two-siRNA summed score (-2 to +2) = 0; mean protection from cisplatin (shift in death) (%) = 8.2.
ANKRD7 (ankyrin repeat domain 7) showed two-siRNA summed score (-2 to +2) = 0; mean protection from cisplatin (shift in death) (%) = -11.6.
SDE2 (spliceosome associated SDE2) showed two-siRNA summed score (-2 to +2) = 0; mean protection from cisplatin (shift in death) (%) = 12.9.
With knock-down of PPP1R10 (protein phosphatase 1 regulatory subunit 10), the screen gave two-siRNA summed score (-2 to +2) = 0; mean protection from cisplatin (shift in death) (%) = -0.5.
For RGS9BP (regulator of G protein signaling 9 binding protein), the entry reads two-siRNA summed score (-2 to +2) = 0; mean protection from cisplatin (shift in death) (%) = 17.3.
KIFAP3 (kinesin associated protein 3) scored two-siRNA summed score (-2 to +2) = 0; mean protection from cisplatin (shift in death) (%) = 0.7.
After knock-down of SLC38A5 the results were two-siRNA summed score (-2 to +2) = 0; mean protection from cisplatin (shift in death) (%) = -3.7.
For LOC285192 the deposit lists two-siRNA summed score (-2 to +2) = 0; mean protection from cisplatin (shift in death) (%) = 4.6.
For MVD (mevalonate diphosphate decarboxylase), the values are two-siRNA summed score (-2 to +2) = 0; mean protection from cisplatin (shift in death) (%) = 0.9.
With knock-down of RAD54B (RAD54 homolog B) #1, the record shows two-siRNA summed score (-2 to +2) = -1; mean protection from cisplatin (shift in death) (%) = -3.
Silencing of RAD54B (RAD54 homolog B) #2 resulted in: two-siRNA summed score (-2 to +2) = 0; mean protection from cisplatin (shift in death) (%) = 11.9.
After knock-down of GPR63 (G protein-coupled receptor 63), the record shows two-siRNA summed score (-2 to +2) = 0; mean protection from cisplatin (shift in death) (%) = 5.7.
Depletion of CD28 (CD28 molecule) came out at: two-siRNA summed score (-2 to +2) = 0; mean protection from cisplatin (shift in death) (%) = 8.4.
ZNF560 (zinc finger protein 560) scored two-siRNA summed score (-2 to +2) = 0; mean protection from cisplatin (shift in death) (%) = 3.
LMTK1 (lemur tail kinase 1) showed two-siRNA summed score (-2 to +2) = 2 (active); mean protection from cisplatin (shift in death) (%) = 19.8.

Ordered by “two-siRNA summed score (-2 to +2)” (low to high): some entries from above.
OR13C9 (olfactory receptor family 13 subfamily C member 9): two-siRNA summed score (-2 to +2) = 0; mean protection from cisplatin (shift in death) (%) = 6.5
LOC401048: two-siRNA summed score (-2 to +2) = 0; mean protection from cisplatin (shift in death) (%) = 8.2
ANKRD7 (ankyrin repeat domain 7): two-siRNA summed score (-2 to +2) = 0; mean protection from cisplatin (shift in death) (%) = -11.6

Next reagents follow:
Against PUM2 (pumilio RNA binding family member 2), the values are two-siRNA summed score (-2 to +2) = 0; mean protection from cisplatin (shift in death) (%) = 9.6.
For DCTN3 (dynactin subunit 3), the values are two-siRNA summed score (-2 to +2) = 0; mean protection from cisplatin (shift in death) (%) = 0.2.
For SRGAP2 (SLIT-ROBO Rho GTPase activating protein 2) the deposit lists two-siRNA summed score (-2 to +2) = 0; mean protection from cisplatin (shift in death) (%) = 3.1.
MAGEB4 (MAGE family member B4) scored two-siRNA summed score (-2 to +2) = 0; mean protection from cisplatin (shift in death) (%) = 13.6.
Depletion of KCNC1 (potassium voltage-gated channel subfamily C member 1) resulted in: two-siRNA summed score (-2 to +2) = -1; mean protection from cisplatin (shift in death) (%) = 2.
With knock-down of TRIM28 (tripartite motif containing 28) the results were two-siRNA summed score (-2 to +2) = 1; mean protection from cisplatin (shift in death) (%) = 5.9.
LOC388928 scored two-siRNA summed score (-2 to +2) = 0; mean protection from cisplatin (shift in death) (%) = 3.9.
ASTN1 (astrotactin 1) gave two-siRNA summed score (-2 to +2) = 0; mean protection from cisplatin (shift in death) (%) = 10.8.
Depletion of HADHA came out at: two-siRNA summed score (-2 to +2) = -1; mean protection from cisplatin (shift in death) (%) = -10.
Against ZNF551 (zinc finger protein 551), the values are two-siRNA summed score (-2 to +2) = 0; mean protection from cisplatin (shift in death) (%) = 3.5.
For LOC286126, the entry reads two-siRNA summed score (-2 to +2) = 0; mean protection from cisplatin (shift in death) (%) = 6.2.
With knock-down of VCX3A (variable charge X-linked 3A), the record shows two-siRNA summed score (-2 to +2) = 0; mean protection from cisplatin (shift in death) (%) = 10.4.
LOC203235 showed two-siRNA summed score (-2 to +2) = 0; mean protection from cisplatin (shift in death) (%) = 12.6.
